Data taken from the supplement of paper PMC3334620.
The full ranking holds about 33,000 sequences; the median of “E-score (-0.5 to 0.5)” is about -8e-05, and the highest 2% start at about 0.23. The list shows a part of the results.

These sequences were tested against T1, Nrg2 (UniProt P38082) (assay: PBM E-score (8-mer binding enrichment) (E-score (-0.5 to 0.5)); higher = stronger / more preferred TF binding). Settings: protein concentration: 100 nM; construct: GST-full length.
T1 sequence: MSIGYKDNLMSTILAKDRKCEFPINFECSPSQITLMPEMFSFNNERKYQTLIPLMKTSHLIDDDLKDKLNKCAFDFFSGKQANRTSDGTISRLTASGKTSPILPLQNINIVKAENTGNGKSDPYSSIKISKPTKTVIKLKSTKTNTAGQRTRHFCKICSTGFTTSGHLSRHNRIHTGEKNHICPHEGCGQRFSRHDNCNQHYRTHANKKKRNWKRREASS
Method in brief: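 Using PURExpress in vitro transcription/translation, GST-tagged yeast transcription factors were made in full-length or DNA-binding-domain form. These were applied at about 100-200 nM to double-stranded universal all-10-mer Agilent arrays, and bound protein was detected with fluorescent anti-GST. Scans were normalised with masliner before the Universal PBM Analysis Suite assigned E-scores to ungapped eight-base words pooled with their reverse complements.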
ACCCGTCA was tested, and the “PBM E-score” value was -0.0303. CGGGACCC was tested, and the “PBM E-score” value was -0.0126. With ATTATGAC the “PBM E-score” value was -0.0447. In the case of CTTGAGGA, the “PBM E-score” value is reported as -0.121. CACGATCG was tested, and the “PBM E-score” value was 0.118. AATGGGAC was tested, and the “PBM E-score” value was 0.15. In the case of CAGGTGCA, the “PBM E-score” value is reported as 0.124. In the case of GTGAGCAC, the “PBM E-score” value is reported as -0.228. CAAATCGG was tested, and the “PBM E-score” value was 0.0907. For CAACATAA, the “PBM E-score” value was 0.203. With GTTGATTA the “PBM E-score” value was 0.144. CAGCACAA was tested, and the “PBM E-score” value was 0.0492. ACGGGGCT was tested, and the “PBM E-score” value was -0.146. With CTAATCAG the “PBM E-score” value was 0.0703. With TATCTACA the “PBM E-score” value was 0.127. With CCGCCATC the “PBM E-score” value was -0.163. In the case of GAGGTAAC, the “PBM E-score” value is reported as 0.047. In the case of ACAAGAAC, the “PBM E-score” value is reported as 0.262. CGCGGCCA was tested, and the “PBM E-score” value was 0.0256. In the case of AATGGCTG, the “PBM E-score” value is reported as -0.0152. In the case of AGAACTTG, the “PBM E-score” value is reported as 0.0373. With CATCCTCC the “PBM E-score” value was -0.175. GTAGCTTA was tested, and the “PBM E-score” value was 0.195. In the case of ATCATTAC, the “PBM E-score” value is reported as 0.149. In the case of ATACTGTG, the “PBM E-score” value is reported as -0.0451. In the case of ATTACTCG, the “PBM E-score” value is reported as 0.178. CGTGGCTC was tested, and the “PBM E-score” value was -0.274. ATGTGAGA was tested, and the “PBM E-score” value was 0.103. In the case of ATAGTCGC, the “PBM E-score” value is reported as 0.0565. For CAACCCTA, the “PBM E-score” value was 0.0574. For CCTCGCCC, the “PBM E-score” value was 0.016. For ACCACTCA, the “PBM E-score” value was 0.0365. With CCGCATTC the “PBM E-score” value was -0.0499. For AAGCCAGC, the “PBM E-score” value was -0.0708. With CCGGCCTA the “PBM E-score” value was 0.0164. CTTCTATC was tested, and the “PBM E-score” value was -0.0682. For GCACATGC, the “PBM E-score” value was 0.0425. For GATTAGAC, the “PBM E-score” value was 0.0407. AGCGGACC was tested, and the “PBM E-score” value was -0.036. CCGGATTA was tested, and the “PBM E-score” value was 0.0135. In the case of GGTGCTAC, the “PBM E-score” value is reported as -0.128. For CGTACATC, the “PBM E-score” value was -0.0477. With ATGAGGGG the “PBM E-score” value was 0.0427. For ATACTCAC, the “PBM E-score” value was -0.00276. For GAGTAAGC, the “PBM E-score” value was -0.0798. With ACACATCG the “PBM E-score” value was -0.0659. CATAAACG was tested, and the “PBM E-score” value was -0.0278. In the case of ATTGCTTA, the “PBM E-score” value is reported as 0.0123. For ACCAGAAT, the “PBM E-score” value was 0.00151. For ATAACGGC, the “PBM E-score” value was 0.157. CTGTCGCA was tested, and the “PBM E-score” value was 0.0104. For ATTTGCAC, the “PBM E-score” value was 0.0924. For CAGCTTAG, the “PBM E-score” value was -0.0439. In the case of GCCCGCCA, the “PBM E-score” value is reported as -0.0582. CCACAGCG was tested, and the “PBM E-score” value was -0.0779. GGCGTCAA was tested, and the “PBM E-score” value was 0.0658. With ACCCGCAT the “PBM E-score” value was 0.191. For ATTTTGTG, the “PBM E-score” value was 0.0327. CCTTGATC was tested, and the “PBM E-score” value was 0.17. In the case of CGCCCCAG, the “PBM E-score” value is reported as 0.0362. In the case of ACATGAAG, the “PBM E-score” value is reported as -0.0531. In the case of CATCATTA, the “PBM E-score” value is reported as 0.231. CACAATGG was tested, and the “PBM E-score” value was 0.16. With AGCATATA the “PBM E-score” value was 0.0646. For AGCGGCGG, the “PBM E-score” value was 0.126. In the case of GAGCATGC, the “PBM E-score” value is reported as -0.00298. In the case of TTATATAA, the “PBM E-score” value is reported as 0.192. GGGTCAGA was tested, and the “PBM E-score” value was -0.087. CTCTACAA was tested, and the “PBM E-score” value was -0.0203. For AGATACAA, the “PBM E-score” value was 0.162. For CACCGAGA, the “PBM E-score” value was 0.032. In the case of AAGCGGGA, the “PBM E-score” value is reported as -0.0677. ACAGCGGA was tested, and the “PBM E-score” value was 0.0846. CCAACTGC was tested, and the “PBM E-score” value was 0.0917. With AACCGCAC the “PBM E-score” value was 0.108. AGTCGCGG was tested, and the “PBM E-score” value was -0.183. In the case of CACTAGAG, the “PBM E-score” value is reported as 0.00401. For TGCGGAAA, the “PBM E-score” value was 0.0306. ACGTTACA was tested, and the “PBM E-score” value was -0.111. CGGGCTAG was tested, and the “PBM E-score” value was -0.0659. For GGTGGAAC, the “PBM E-score” value was -0.169. TCTCGAAA was tested, and the “PBM E-score” value was 0.124. With AACAGCGG the “PBM E-score” value was -0.0995. AGCTTTGC was tested, and the “PBM E-score” value was -0.147. In the case of ACGAGAAA, the “PBM E-score” value is reported as 0.174. In the case of AAATTGTC, the “PBM E-score” value is reported as 0.24. In the case of AAGTCCCG, the “PBM E-score” value is reported as -0.069. In the case of AAGTTAAT, the “PBM E-score” value is reported as -0.00228. In the case of ACATATCC, the “PBM E-score” value is reported as 0.0887. ACTGTTCC was tested, and the “PBM E-score” value was -0.156. TAGATGCA was tested, and the “PBM E-score” value was 0.0915. In the case of GAGCCTCC, the “PBM E-score” value is reported as -0.193. CCCTTCCA was tested, and the “PBM E-score” value was -0.164. With ACGATATC the “PBM E-score” value was 0.0337. In the case of GATTGAAC, the “PBM E-score” value is reported as 0.0736. ACCCAACT was tested, and the “PBM E-score” value was 0.111. With CAATAAAC the “PBM E-score” value was 0.152. AATTGTTA was tested, and the “PBM E-score” value was 0.0656. In the case of CAAAAACA, the “PBM E-score” value is reported as 0.00942. In the case of AATGCTCG, the “PBM E-score” value is reported as 0.0937. For AACCCCGC, the “PBM E-score” value was -0.00789. With CCAGCCTA the “PBM E-score” value was -0.0813. With TACTCAAA the “PBM E-score” value was 0.0341. In the case of CCGTGTTC, the “PBM E-score” value is reported as 0.203. In the case of ACTTTGCA, the “PBM E-score” value is reported as 0.157. In the case of ACCGATCA, the “PBM E-score” value is reported as 0.0302. For ATTGGTAC, the “PBM E-score” value was -0.0096. AACGAATC was tested, and the “PBM E-score” value was 0.143. For TACATGCA, the “PBM E-score” value was 0.116. For AGTCCCAT, the “PBM E-score” value was -0.0808. In the case of TCTGTCCA, the “PBM E-score” value is reported as -0.0691. With CGGATTTC the “PBM E-score” value was 0.0939. In the case of AGAGTTTC, the “PBM E-score” value is reported as -0.258. In the case of GAACCCTA, the “PBM E-score” value is reported as 0.0863. With CAGGAGTA the “PBM E-score” value was -0.028. For AAATCTCG, the “PBM E-score” value was 0.0889. In the case of TCAGGGGA, the “PBM E-score” value is reported as 0.159. In the case of CCACCTTC, the “PBM E-score” value is reported as -0.28. For CCCCGCAA, the “PBM E-score” value was 0.115. For CCTCTCAA, the “PBM E-score” value was 0.00399. With GGTTCGAA the “PBM E-score” value was 0.221. CAGTGAGG was tested, and the “PBM E-score” value was -0.23. With ACAAGCAG the “PBM E-score” value was -0.117. For CACTTGCG, the “PBM E-score” value was -0.075. ATGTGCGC was tested, and the “PBM E-score” value was 0.0525. For CCCGACCA, the “PBM E-score” value was 0.0818. CGCTCGGC was tested, and the “PBM E-score” value was 0.0597. With AGGCGTAG the “PBM E-score” value was -0.195. In the case of CGGCTTCA, the “PBM E-score” value is reported as 0.0879. CAGTGGAG was tested, and the “PBM E-score” value was 0.166. In the case of GTCCGCAC, the “PBM E-score” value is reported as 0.136. With GATGAGCA the “PBM E-score” value was 0.169. CAATTGCA was tested, and the “PBM E-score” value was -0.0952. ACGGACGT was tested, and the “PBM E-score” value was -0.169. CACAAAGC was tested, and the “PBM E-score” value was 0.0422. With AATAGAAA the “PBM E-score” value was 0.0204. In the case of AAGCCCTC, the “PBM E-score” value is reported as -0.132. CTAAATGA was tested, and the “PBM E-score” value was 0.0289. CCGCGGGC was tested, and the “PBM E-score” value was 0.0924. In the case of TCATAAAA, the “PBM E-score” value is reported as -0.032. ATCAAGCC was tested, and the “PBM E-score” value was 0.0359. In the case of AAAGTGGT, the “PBM E-score” value is reported as 0.0259. For ACACATAC, the “PBM E-score” value was 0.0414. AAACCGAC was tested, and the “PBM E-score” value was 0.157. With GCTCTTCC the “PBM E-score” value was -0.202. For CAAAACGG, the “PBM E-score” value was 0.0312. For CCTAACCG, the “PBM E-score” value was -0.136. With ATCTCTGA the “PBM E-score” value was -0.135. ACACTGAG was tested, and the “PBM E-score” value was 0.00229. In the case of CGTGCCGC, the “PBM E-score” value is reported as 0.0137. ATTCATCG was tested, and the “PBM E-score” value was 0.134. ACTTGAAG was tested, and the “PBM E-score” value was -0.0885. For GCAAACTA, the “PBM E-score” value was 0.0526. With CAGAAACA the “PBM E-score” value was 0.131. For AATCCGAT, the “PBM E-score” value was 0.0806. With CCAGTGTC the “PBM E-score” value was -0.0246. In the case of GGACTGAA, the “PBM E-score” value is reported as 0.014. With ACGGAATG the “PBM E-score” value was -0.00971. For AGCGGTTC, the “PBM E-score” value was -0.0148. With ACACCTAA the “PBM E-score” value was -0.0691. With AACACCCT the “PBM E-score” value was -0.00643. For ACAGATGA, the “PBM E-score” value was -0.0278. In the case of AAACCAGA, the “PBM E-score” value is reported as 0.119. For ACGGGGAA, the “PBM E-score” value was -0.076. With AGCGATGC the “PBM E-score” value was -0.177. With ATTGGTAA the “PBM E-score” value was 0.201. With GCGTGGCC the “PBM E-score” value was -0.108. In the case of AGAATCAT, the “PBM E-score” value is reported as 0.0757. With ACAAGTGC the “PBM E-score” value was -0.0992. CGGCCTTA was tested, and the “PBM E-score” value was 0.0601. CTCGAGCA was tested, and the “PBM E-score” value was 0.183. In the case of CTTCATCC, the “PBM E-score” value is reported as -0.0188.
